Data from patent publication US20050019854A1, “Novel method for screening inhibitors of the linkage between the neuronal nitric oxide synthase associated protein and the protein inhibiting neuronal nitric oxide synthase” (priority 2001, published 2005).
Results are given in words; binding and its absence hold for the method and conditions named. Some binding calls cover weakened binding; strength is not graded here. Blank lines part the entries; values can stand above or below the binder they belong to.

By UniProt entry, the sequences of proteins in these tests, tags left out.
UniProt P63170: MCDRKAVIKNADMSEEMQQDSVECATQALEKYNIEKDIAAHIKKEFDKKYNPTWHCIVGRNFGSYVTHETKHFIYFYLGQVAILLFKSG

Columns and labels:
[1] = molecular target: protein inhibitor of neuronal nitric oxide synthase (PIN), produced by thrombin digestion of GST-PIN (rat) (UniProt P63170); experiment: SPR competition
[2] = molecular target: GST-PIN (PIN with a glutathione S-transferase tag in the N-terminal position) (rat) (UniProt P63170); experiment: competition ELISA
[3] = molecular target: protein inhibitor of neuronal nitric oxide synthase (PIN), produced by thrombin digestion of GST-PIN (rat) (UniProt P63170); experiment: SPR, peptide immobilized on CM5, PIN injected
[4] = molecular target: protein inhibitor of neuronal nitric oxide synthase (PIN), produced by thrombin digestion of GST-PIN (rat) (UniProt P63170); experiment: SPR

binding [1]: binds | binding [2]: binds
Binder: IDVGIQVDWD (Synthetic 10-mer) [mutant nNOS peptide represented by sequence SEQ ID NO: 4 (Ile-Asp-Val-Gly-Ile-Gln-Val-Asp-Trp-Asp)]

binding [1]: binds | binding [3]: binds | binding [2]: binds | binding [4]: binds
B1: mutant nNOS peptide represented by sequence SEQ ID NO: 3 (Lys-Asp-Thr-Gly-Ile-Gln-Val-Asp-Trp-Asp) (peptide)
peptide: KDTGIQVDWD
notes: Synthetic 10-mer; It differs from the normal peptide by Arg to Trp at position 9

binding [3]: binds
B2: normal (non-mutant) nNOS peptide Lys Asp Thr Gly Ile Gln Val Asp Arg Asp (nNOS amino acids 229-238) (peptide)
peptide: KDTGIQVDRD
notes: Made by Fmoc solid phase synthesis; also called normal peptide; normal nNOS peptide
